From the supplement of paper PMC10338343
± gives the standard deviation. Only a part is listed here, and it is no random draw. The uncertainty is large for many entries. The list shows a part of the results.

Tests used:
[1] = test system: MILI (PIWIL2) piRISC loaded with L1MC piRNA (26 nt); test: pre-steady-state target cleavage rate (min^-1); higher = faster piRNA-guided slicing of the target; details: guide: L1MC piRNA 5'p-UAACUAAAUACUAUGCAAGCUGUAGG
In short: (§1)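 Active affinity-purified piRISC (1 nM) loaded with one synthetic guide was mixed with a transcribed, DNA-blocked target RNA library (0.1 nM), with or without 500 nM GTSF1 partner protein, in HEPES–potassium acetate buffer at 33 °C for 0–8 or 0–960 min. Uncleaved targets were sequenced, normalised to depth and to weakly complementary targets, and pooled across three trials, with k3 capped at 0.0001 min^-1. The pre-steady-state cleavage rate was determined with a burst-and-steady-state fit.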

[2] = test system: MIWI (PIWIL1) piRISC loaded with L1MC piRNA (30 nt); test: as above; details: guide: L1MC piRNA 5'p-UAACUAAAUACUAUGCAAGCUGUAGGUCCU
In short: as §1

[3] = test system: EfPiwi piRISC loaded with L1MC piRNA (26 nt); test: pre-steady-state target cleavage rate (min^-1); guide: L1MC piRNA 5'p-UAACUAAAUACUAUGCAAGCUGUAGG; MIWI and MILI are mouse PIWI proteins and EfPiwi is from a freshwater sponge; tags in brackets are library labels; higher = faster piRNA-guided slicing of the target
In short: as §1

[4] = auxiliary factor: 500 nM mouse GTSF1
[5] = auxiliary factor: none (no GTSF1)
[6] = auxiliary factor: 500 nM Ephydatia muelleri Gtsf1
[7] = auxiliary factor: none (no Gtsf1)

Sequence	pre-steady-state target cleavage rate [1, 4]	pre-steady-state target cleavage rate [1, 5]	pre-steady-state target cleavage rate [2, 5]	pre-steady-state target cleavage rate [3, 6]	pre-steady-state target cleavage rate [2, 4]	pre-steady-state target cleavage rate [3, 7]
UCCUGGAUGUCGAAGAUAGUAUUUAGUUA	0.00154 ± 0.0043	0.000436 ± 0.0096	0.000455 ± 0.011	0.00025 ± 0.015	–	–
UCCUGGAUCAGCUUGCUAAGUAUUUACAAA	0.0261 ± 0.0085	0.000909 ± 0.006	0.000374 ± 0.0052	0.000301 ± 0.013	–	–
UCCUGGAUGUCGAUGCAUUGUAUUUAGUUA	0.0091 ± 0.0037	0.00226 ± 0.0025	0.000873 ± 0.0083	0.000928 ± 0.0061	–	–
UCCUGGAUGUCCAUGCAUAGUAUUAAGUUA	0.0665 ± 0.018	0.00161 ± 0.0046	0.00079 ± 0.012	0.00186 ± 0.006	–	–
UCCUGGAUGUCCUUGGAUAGUAUUUAGUAA	0.121 ± 0.019	0.00376 ± 0.0019	0.0015 ± 0.0041	0.00188 ± 0.0048	–	–
UCCUGGAUGUCGAUGGAUAGUUUUUAGUUA	0.000479 ± 0.015	0.000646 ± 0.0087	–	0.000121 ± 0.03	0.000196 ± 0.036	–
UCCUGGUACAGCAAGCAUAGUAUUUACAAA	0.0528 ± 0.019	0.000737 ± 0.008	0.00119 ± 0.0072	0.000402 ± 0.013	–	–
UCCUCCUACAGCUUGCAUAGUAAAAAGUAA	0.0657 ± 0.019	0.000859 ± 0.0069	0.000361 ± 0.0086	0.00344 ± 0.0029	–	–
UCCUCCUACAGCUUGGUAAGUAUUUAGAAA	0.0543 ± 0.013	0.000992 ± 0.0039	0.000259 ± 0.01	0.00107 ± 0.0057	–	–
UCCUGGAUGUCGAACGAUGGUAUUUAGUUA	< 0.0001	0.000498 ± 0.008	0.000465 ± 0.012	–	–	0.00016 ± 0.037
UCCUGGAUCAGCUUGCAAUGUAUUUAGAAA	0.0496 ± 0.013	0.00148 ± 0.0045	0.00286 ± 0.003	0.000457 ± 0.0056	–	–
UCCUGGAUGUCGAUGCAUAGGAUUUAGUUA	0.00183 ± 0.0049	0.00157 ± 0.0044	0.000582 ± 0.011	–	–	< 0.0001
UCCUGGAUGUCGUUGAUAGUAUUUAGUUA	0.00115 ± 0.0067	0.000563 ± 0.0076	0.000549 ± 0.006	0.000625 ± 0.01	–	–
UCCUGGAUGUGCUUGCAUAGUAUUUUCAUA	0.00417 ± 0.0048	0.000923 ± 0.0069	0.0022 ± 0.0033	0.000904 ± 0.0035	–	–
UCCUGCUUGUGCUUGCAUAGUAUUUUCAAA	0.00521 ± 0.0042	0.000743 ± 0.0063	0.00139 ± 0.0036	0.0022 ± 0.0034	–	–
UCCUGGAUGUCGUUGCAAUGUAUUUAGUUA	0.00171 ± 0.0063	0.00255 ± 0.0031	0.000824 ± 0.0093	0.000309 ± 0.011	–	–
UCCUCCUACAGCUUGCAAUCUAUUUAGUAA	0.0401 ± 0.0094	0.000753 ± 0.0078	0.00165 ± 0.0038	–	–	0.000452 ± 0.011
UCCUGGAUGUCGAAGCCAUAGUAUUUAGUUA	0.00267 ± 0.0036	0.000591 ± 0.0087	0.000198 ± 0.018	0.00118 ± 0.0054	–	–
UCCUGGAUGUCGAACGUUUGUAUUUUGUUA	0.000103 ± 0.056	0.000224 ± 0.021	–	–	0.000237 ± 0.028	0.000198 ± 0.024
UCCUGGAUCAGCUUGCAAAGUAUUUUCAAA	0.00923 ± 0.0045	0.00088 ± 0.0067	0.00185 ± 0.0036	0.00083 ± 0.0039	–	–
UCCUGGAUGUCGUUGCAUGAGUAUUUAGUUA	0.000818 ± 0.0096	0.00104 ± 0.0082	0.000593 ± 0.016	0.000321 ± 0.01	–	–
UCCUGGAUGUCGUUGCGAUAGUAUUUAGUUA	0.00025 ± 0.025	0.000214 ± 0.015	0.000409 ± 0.014	0.000245 ± 0.014	–	–
UCCUGGAUGUCGAAGCAGAGUAUUUAGUUA	0.00191 ± 0.0056	0.000906 ± 0.0071	0.000885 ± 0.0091	0.000288 ± 0.0099	–	–

Single records, as listed above. Values in the order: pre-steady-state target cleavage rate [1, 4] | pre-steady-state target cleavage rate [1, 5] | pre-steady-state target cleavage rate [2, 5] | pre-steady-state target cleavage rate [3, 6] | pre-steady-state target cleavage rate [2, 4] | pre-steady-state target cleavage rate [3, 7]
UCCUGGAUGUCGAAGCAGAGUAUUUAGUUA as listed: 0.00191 ± 0.0056 | 0.000906 ± 0.0071 | 0.000885 ± 0.0091 | 0.000288 ± 0.0099 | – | –
UCCUGGAUGUCGAAGCCAUAGUAUUUAGUUA as listed: 0.00267 ± 0.0036 | 0.000591 ± 0.0087 | 0.000198 ± 0.018 | 0.00118 ± 0.0054 | – | –
UCCUGCUUGUGCUUGCAUAGUAUUUUCAAA as listed: 0.00521 ± 0.0042 | 0.000743 ± 0.0063 | 0.00139 ± 0.0036 | 0.0022 ± 0.0034 | – | –

Going on with the list:

Sequence	pre-steady-state target cleavage rate [1, 4]	pre-steady-state target cleavage rate [1, 5]	pre-steady-state target cleavage rate [2, 5]	pre-steady-state target cleavage rate [3, 6]	pre-steady-state target cleavage rate [2, 4]	pre-steady-state target cleavage rate [3, 7]
UCCUCCUAGAGCUUGCAUAGUAUUUACAAA	0.0915 ± 0.027	0.000972 ± 0.0061	0.00231 ± 0.0035	0.00252 ± 0.0019	–	–
UCCUGGAUGUCGAUGCUUAGUAUUUAGUAA	0.0164 ± 0.0045	0.00102 ± 0.0051	0.000699 ± 0.0092	0.000305 ± 0.015	–	–
UCCUGGAUGUCCAUUGCAUAGUAUUUAGUUA	0.127 ± 0.032	0.00284 ± 0.0039	0.00217 ± 0.0034	–	–	0.00189 ± 0.0054
UCCUGGUAGAGCUUGCAUAGUAUUUACAAA	0.015 ± 0.0066	0.000808 ± 0.0073	0.00249 ± 0.0032	0.00173 ± 0.0025	–	–
UCCUGGAUGUCCUUGCAUAGUAAUAAGUUA	0.0367 ± 0.013	0.00284 ± 0.0025	0.00086 ± 0.0074	0.00161 ± 0.005	–	–
UCCUGGAUGUCGAAGCAUAGUAUUUUAGUUA	0.0433 ± 0.01	0.00324 ± 0.0028	–	0.000287 ± 0.012	0.00192 ± 0.0055	–
UCCUGGAUGUCGAAGCAUAGGUAUUUAGUUA	0.000996 ± 0.0087	0.000554 ± 0.011	0.000545 ± 0.014	0.000221 ± 0.016	–	–
UCCUGGAUGUCGAACCAUUGUAUUUAGUUA	0.000336 ± 0.017	0.000328 ± 0.009	0.000338 ± 0.012	–	–	< 0.0001
UCCUGCUACAGCUUGCAUAGUAUUAACAAA	0.0401 ± 0.011	0.00146 ± 0.0049	0.00187 ± 0.0053	0.00321 ± 0.0023	–	–
UCCUGGAUGUCCUUGCAUUGAAUUUAGUUA	0.00493 ± 0.0046	0.00269 ± 0.0034	0.000952 ± 0.0055	0.000734 ± 0.0072	–	–
UCCUGGAUGUGCUUGCAUACAAUUUAGUAA	0.000987 ± 0.01	0.000953 ± 0.0066	–	0.00154 ± 0.0075	0.001 ± 0.011	–
UCCUCCUAGUCCUUGCAUAGUAUUUUCAAA	0.0344 ± 0.013	0.00162 ± 0.0039	0.00122 ± 0.0031	0.00265 ± 0.0046	–	–
UCCUGGAUGUCGAACGAUACUAUUUAGUUA	0.000142 ± 0.037	0.000257 ± 0.014	0.000272 ± 0.022	–	–	0.000126 ± 0.03
UCCUCCUACAGCUUCGUUAGUAUUUAGUAA	0.186 ± 0.026	0.00171 ± 0.0029	0.00081 ± 0.0051	–	–	0.000406 ± 0.01
UCCUGGAUGUCCUUGCCAUAGUAUUUAGUUA	0.00783 ± 0.0048	0.00102 ± 0.0072	0.000553 ± 0.014	0.00115 ± 0.0074	0.00165 ± 0.0065	–
UCCUGGAUGUCCUUGCAUAGUAAUUAGUAA	0.0241 ± 0.0076	0.00153 ± 0.0046	0.00143 ± 0.0041	0.00251 ± 0.0053	0.0038 ± 0.0042	–
UCCUGGAUGAGCUUGCAUACAAUUUAGUAA	0.000854 ± 0.0094	0.000185 ± 0.021	0.000174 ± 0.014	0.000486 ± 0.0067	0.00119 ± 0.0083	–
UCCUGGAUGUGCUUGCAUAGUUUUUAGAAA	0.00144 ± 0.0083	0.00113 ± 0.0051	0.00199 ± 0.0034	0.000713 ± 0.0044	0.0019 ± 0.0073	–
UCCUGGAUGUCGAUGCAUAGUAUUUAUGUUA	0.106 ± 0.022	0.00134 ± 0.0053	0.000433 ± 0.017	0.000457 ± 0.007	0.00358 ± 0.0038	–
UCCUGGAUCAGCUUGCAUACAUUUUAGUAA	0.00123 ± 0.0065	0.000808 ± 0.0085	0.000992 ± 0.0047	0.000294 ± 0.011	0.00132 ± 0.0091	–
UCCUGGUACAGCAUGCAUAGUAUUUAGUAA	0.163 ± 0.02	0.00467 ± 0.0031	0.00875 ± 0.0024	0.00753 ± 0.0032	0.377 ± 0.04	–
UCCUGGAUCAGCUUGCAUAGUAUUUAGUUG [g2:g22:cont:t1G]	0.285 ± 0.018	0.00983 ± 0.0019	0.0362 ± 0.0084	0.0209 ± 0.0054	1.05 ± 0.12	–
